Values quoted from earlier work as cited in patent publication US20110300142A1, “USE OF ZEBURALINE FOR THE TREATMENT OF AUTOIMMUNE DISEASES OR IMMUNE REJECTION OF TRANSPLANTS” (priority 2007, published 2011).
For some assays here: At least one read-out could not be matched to a standard name with certainty. Some results were stated once for a whole list of compounds, not compound by compound.

What was measured:
[1] = target: T1, aldehyde oxidase (Homo sapiens, UniProt Q06278); details: collective range for the listed inhibitors; lower end in nM, upper end in μM (Obach et al., 2004); cited from earlier work
T1 sequence (Q06278 1-1338): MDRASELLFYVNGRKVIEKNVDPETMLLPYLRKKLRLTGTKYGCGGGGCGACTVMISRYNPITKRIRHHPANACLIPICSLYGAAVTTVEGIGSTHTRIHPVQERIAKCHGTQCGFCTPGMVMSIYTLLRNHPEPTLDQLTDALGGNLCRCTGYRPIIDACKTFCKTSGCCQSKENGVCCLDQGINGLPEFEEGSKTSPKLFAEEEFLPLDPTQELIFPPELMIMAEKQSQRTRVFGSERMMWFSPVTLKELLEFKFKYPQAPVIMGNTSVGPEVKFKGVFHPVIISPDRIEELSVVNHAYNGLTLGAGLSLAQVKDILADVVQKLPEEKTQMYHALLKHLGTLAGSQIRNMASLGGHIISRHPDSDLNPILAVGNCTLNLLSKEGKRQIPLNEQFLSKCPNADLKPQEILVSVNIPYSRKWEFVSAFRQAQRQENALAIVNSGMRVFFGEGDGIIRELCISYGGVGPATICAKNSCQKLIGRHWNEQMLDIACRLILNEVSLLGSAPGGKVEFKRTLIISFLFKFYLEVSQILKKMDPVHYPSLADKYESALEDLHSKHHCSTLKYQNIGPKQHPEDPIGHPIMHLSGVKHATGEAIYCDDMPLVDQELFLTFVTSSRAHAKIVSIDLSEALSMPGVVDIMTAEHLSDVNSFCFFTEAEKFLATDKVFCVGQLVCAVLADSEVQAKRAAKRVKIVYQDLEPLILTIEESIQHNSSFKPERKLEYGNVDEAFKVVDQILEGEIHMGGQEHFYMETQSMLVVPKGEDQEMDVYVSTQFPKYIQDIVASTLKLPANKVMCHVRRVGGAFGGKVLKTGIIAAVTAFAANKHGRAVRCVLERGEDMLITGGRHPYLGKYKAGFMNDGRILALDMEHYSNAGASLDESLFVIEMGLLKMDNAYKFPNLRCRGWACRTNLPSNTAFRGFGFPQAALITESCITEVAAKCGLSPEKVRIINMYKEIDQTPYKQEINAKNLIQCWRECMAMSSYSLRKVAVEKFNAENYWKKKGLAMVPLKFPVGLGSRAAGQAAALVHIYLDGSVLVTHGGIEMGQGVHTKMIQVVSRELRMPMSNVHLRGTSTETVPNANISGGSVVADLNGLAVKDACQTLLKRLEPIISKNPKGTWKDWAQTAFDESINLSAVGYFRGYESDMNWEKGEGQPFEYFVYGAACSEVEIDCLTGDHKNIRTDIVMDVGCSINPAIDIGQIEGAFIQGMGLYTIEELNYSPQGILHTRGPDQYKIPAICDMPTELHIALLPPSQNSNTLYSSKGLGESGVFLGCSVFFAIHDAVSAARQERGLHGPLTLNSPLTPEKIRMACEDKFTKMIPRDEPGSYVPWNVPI

[2] = mouse; cited from earlier work

Compound | IC50 [1] [nM] | bioavailability compared to that of uridine [2]
CN(C)CCC=C1c2ccccc2CCc2ccccc21 [Amitriptyline] | 3 to 1000 | 
O=c1ncccn1[C@@H]1O[C@H](CO)[C@@H](O)[C@H]1O [zebularine, 1-(β-D-Ribofuranosyl)-1,2-dihydropyrimidin-2-one] |  | very similar
